Experimental data: US20240158505A1 (published 2024)
Results are given in words; binding and its absence hold for the method and conditions named. Some entries that bind do so weakly or less than the wild type. Tags and fused reporters may be left off the sequences shown.

T1: Recombinant Human B7-H3 Fc chimera Protein (Rndsystem, Cat #1027-B3-100) (human) (UniProt Q5ZPR3)
T1 sequence (looked up): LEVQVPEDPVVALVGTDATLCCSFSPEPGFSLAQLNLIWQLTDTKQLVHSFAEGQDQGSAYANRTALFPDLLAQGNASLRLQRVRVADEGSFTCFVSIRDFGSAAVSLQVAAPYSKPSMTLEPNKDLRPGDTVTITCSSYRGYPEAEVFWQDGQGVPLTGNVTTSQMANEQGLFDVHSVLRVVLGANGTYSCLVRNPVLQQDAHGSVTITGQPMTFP


Biological target: T1, Recombinant Human B7-H3 Fc chimera Protein (Rndsystem, Cat #1027-B3-100) (human)
Assay: ELISA, plate coated with recombinant human B7-H3, anti-HA tag HRP detection

Binder	binding
#1 antibody (antibody, V domains shown) VH: EVQLLESGGGLVQPGGSLRLSCAASGFTFSSYAMSWVRQAPGKGLEWVSTITGSGGSTYYADSVKGRFTISRDNSKNTLYLQMNSLRAEDTAVYYCARYKSGAFDIWGQGTLVTVSS VL: EIVLTQSPGTLSLSPGERATLSCRASQGIGNYLGWYQQKPGQAPRLLIYTASSLQSGIPDRFSGSGSGTDFTLTISRLEPEDFAVYYCQQGYSTPSWTFGQGTKVEIK	binds
#2 antibody (antibody, V domains shown) VH: EVQLLESGGGLVQPGGSLRLSCAASGFTFSAYYMIWVRQAPGKGLEWVSITNPSGGVTSYAQKFQGRFTISRDNSKNTLYLQMNSLRAEDTAVYYCARVGGRGFDIWGQGTLVTVSS VL: EIVLTQSPGTLSLSPGERATLSCHASQGISNYVAWYQQKPGQAPRLLIYDASNRATGIPDRFSGSGSGTDFTLTISHLEPEDFAVYYCQQSYSTLLTFGQGTKVEIK	binds
#3 antibody (antibody, V domains shown) VH: EVQLLESGGGLVQPGGSLRLSCAASGFTFSTYYMTWVRQAPGKGLEWVSIINPRGGSTSYAEKFQGRFTISRDNSKNTLYLQMNSLRAEDTAVYYCARWNLGMDVWGQGTLVTVSS VL: EIVLTQSPGTLSLSPGERATLSCRVSQSISSYLNWYQQKPGQAPRLLIYDASHRATGIPDRFSGSGSGTDFTLTISRLEPEDFAVYYCQQYYAPSVTFGQGTKVEIK	binds
#4 antibody (antibody, V domains shown) VH: EVQLLESGGGLVQPGGSLRLSCAASGFTFSSYGMHWVRQAPGKGLEWVSAISGSGTSIYYANSVKSRFTISRDNSKNTLYLQMNSLRAEDTAVYYCARGAGWFDYWGQGTLVTVSS VL: QSVLTQPPSASGTPGQRVTISCSGSTSNIGSNTVNWYQQLPGTAPKLLIYGKNIRPNGVPDRFSGSKSGTSASLAISGLHSEDEADYYCQSYDSSLSGWVFGGGTKLTVL	binds
#5 antibody (antibody, V domains shown) VH: EVQLLESGGGLVQPGGSLRLSCAASGFTFSTYAMSWVRQAPGKGLEWVSAISGSGGSTLYADSVKGRFTISRDNSKNTLYLQMNSLRAEDTAVYYCARGGSATWAFDLWGQGTLVTVSS VL: QSVLTQPPSASGTPGQRVTISCSGSSSNIGSNYVYWYQQLPGTAPKLLIYRNNQRPSGVPDRFSGSKSGTSASLAISGLRSEDEADYYCGTWDSSLSGVVFGGGTKLTVL	binds
#6 antibody (antibody, V domains shown) VH: EVQLLESGGGLVQPGGSLRLSCAASGFTFSTYAISWVRQAPGKGLEWVSSIYYSGYTHYNPSLESRFTISRDNSKNTLYLQMNSLRAEDTAVYYCARGYSGWMDVWGQGTLVTVSS VL: QSVLTQPPSASGTPGQRVTISCGGNNIGSKSVHWYQQLPGTAPKLLIYDNNKRPSGVPNRFSGSKSGTSASLAISGLRSEDEADYYCAAWDDSLNVPVFGGGTKLTVL	binds
#7 antibody (antibody, V domains shown) VH: EVQLLESGGGLVQPGGSLRLSCAASGFTFSNFWIGWVRQAPGKGLEWVSWINPPGSITSYADSVKGRFTISRDNSKDTLYLQMNSLRAEDTAVYYCAREVGDVLDYWGQGTLVTVSS VL: QSVLTQPPSASGTPGQRVTISCTGTSSDIGRYNYVSWYQQLPGTAPKLLIYRNTQRPSGVPDRFSGSKSGTSASLAISGLRSEDEADYYCGTWDSSLNAYVFGGGTKLTVL	binds
#8 antibody (antibody, V domains shown) VH: EVQLLESGGGLVQPGSSLRLSCAASGFTFSSYWISWVRQAPGKGLEWVSEISPSGNTNYNPSLKSRFTISRDNSKNTLYLQMNSLRAEDTAVYYCAREVGDLLDYWGQGTLVTVSS VL: QSVLTQPPSASGTPGQRVTISCSGSNIGNNYVSWYQQLPGTAPKLLIYQDSKRPSGVPDRFSGSKSGTSASLAISGLRSEDEADYYCLVWDRSSDHFVFGGGTKLTVL	binds
#9 antibody (antibody, V domains shown) VH: EVQLLESGGGLVQPGGSLRLSCAASGFTFSSYAMNWVRQAPGKGLEWVSTISGSGGQTYYADSVKGRFTISRDNSKNTLYLQMNSLRAEDTAVYYCARWRSIWAFDYWGQGTLVTVSS VL: QSVLTQPPSASGTPGQRVTISCSDNNIGSKSVHWYQQLPGTAPKLLIYDNNKRPSGVPDRFSGSKSGTSASLAISGLRSEDEADYYCGTWDDSLSGPVFGGGTKLTVL	binds
